Assay results as given in patent publication US20260146103A1 (J DAVID GLADSTONE INSTITUTES A TESTAMENTARY TRUST …, published 2026).
No constants are given. Whether binding was seen depends on the method and setting. Some results given as binding are weak or reduced against the parent protein; the word gives no strength.

By UniProt entry, the sequences of proteins in these tests, tags left out. Where a name states a change or a piece, a line headed by the entry shows the natural chain unless it says otherwise.
UniProt P02671: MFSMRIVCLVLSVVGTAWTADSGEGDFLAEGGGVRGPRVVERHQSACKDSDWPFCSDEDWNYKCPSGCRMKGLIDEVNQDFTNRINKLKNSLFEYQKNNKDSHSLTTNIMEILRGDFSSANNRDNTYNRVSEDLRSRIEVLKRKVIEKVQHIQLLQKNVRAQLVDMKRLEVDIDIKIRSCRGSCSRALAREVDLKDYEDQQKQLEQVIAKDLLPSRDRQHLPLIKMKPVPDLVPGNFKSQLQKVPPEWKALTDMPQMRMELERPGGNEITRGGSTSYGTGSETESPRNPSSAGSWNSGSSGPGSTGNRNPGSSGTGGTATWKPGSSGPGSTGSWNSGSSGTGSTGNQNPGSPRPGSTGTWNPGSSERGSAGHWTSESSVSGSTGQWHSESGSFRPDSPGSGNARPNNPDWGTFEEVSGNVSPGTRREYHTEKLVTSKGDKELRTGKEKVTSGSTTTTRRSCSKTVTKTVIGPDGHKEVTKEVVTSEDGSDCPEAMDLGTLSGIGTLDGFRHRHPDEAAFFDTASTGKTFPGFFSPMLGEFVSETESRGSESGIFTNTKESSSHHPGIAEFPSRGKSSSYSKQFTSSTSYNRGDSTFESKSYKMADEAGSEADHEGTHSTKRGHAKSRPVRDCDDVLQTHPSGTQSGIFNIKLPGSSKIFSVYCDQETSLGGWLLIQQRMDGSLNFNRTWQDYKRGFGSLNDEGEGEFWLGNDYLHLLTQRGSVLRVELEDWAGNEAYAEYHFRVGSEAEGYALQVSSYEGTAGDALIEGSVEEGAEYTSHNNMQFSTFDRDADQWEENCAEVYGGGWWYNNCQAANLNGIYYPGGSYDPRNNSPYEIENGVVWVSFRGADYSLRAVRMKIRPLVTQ

Key:
[1] = molecular target: fibrinogen (UniProt P02671); test: ELISA, plates coated with fibrinogen
[2] = molecular target: P2 peptide (…); test: method not described
[3] = molecular target: T1, fibrin(ogen) in the spinal cord of EAE mice (mouse) (UniProt E9PV24); test: double immunofluorescence with a sheep anti-fibrin(ogen) antibody, EAE spinal cords
T1 sequence (looked up) 1: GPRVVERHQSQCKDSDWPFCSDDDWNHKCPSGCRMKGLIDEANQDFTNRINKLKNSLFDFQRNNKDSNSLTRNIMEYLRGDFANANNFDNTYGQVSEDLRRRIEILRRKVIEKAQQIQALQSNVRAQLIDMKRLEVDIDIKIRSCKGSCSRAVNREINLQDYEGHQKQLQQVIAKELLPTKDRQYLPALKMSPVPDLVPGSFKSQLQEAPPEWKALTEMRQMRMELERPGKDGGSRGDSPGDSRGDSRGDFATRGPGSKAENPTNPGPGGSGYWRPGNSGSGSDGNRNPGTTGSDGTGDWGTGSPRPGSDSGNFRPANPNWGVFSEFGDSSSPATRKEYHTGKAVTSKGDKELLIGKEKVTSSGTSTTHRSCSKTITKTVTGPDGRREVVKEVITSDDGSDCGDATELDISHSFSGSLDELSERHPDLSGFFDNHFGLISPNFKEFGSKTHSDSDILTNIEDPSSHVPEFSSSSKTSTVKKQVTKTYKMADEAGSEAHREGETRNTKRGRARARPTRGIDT
T1 sequence (looked up) 2: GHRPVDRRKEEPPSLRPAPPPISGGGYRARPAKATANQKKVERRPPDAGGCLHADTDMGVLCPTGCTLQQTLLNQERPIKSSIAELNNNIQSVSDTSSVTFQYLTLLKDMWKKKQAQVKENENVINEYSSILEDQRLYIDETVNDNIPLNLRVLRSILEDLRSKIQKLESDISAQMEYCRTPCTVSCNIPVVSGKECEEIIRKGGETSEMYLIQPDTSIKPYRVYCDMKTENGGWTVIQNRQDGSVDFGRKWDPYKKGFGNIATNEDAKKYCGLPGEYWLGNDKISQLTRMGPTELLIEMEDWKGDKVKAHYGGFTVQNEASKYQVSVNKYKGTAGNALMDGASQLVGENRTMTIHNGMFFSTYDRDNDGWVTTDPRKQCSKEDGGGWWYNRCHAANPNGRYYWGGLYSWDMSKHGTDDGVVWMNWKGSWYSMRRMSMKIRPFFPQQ
T1 sequence (looked up) 3: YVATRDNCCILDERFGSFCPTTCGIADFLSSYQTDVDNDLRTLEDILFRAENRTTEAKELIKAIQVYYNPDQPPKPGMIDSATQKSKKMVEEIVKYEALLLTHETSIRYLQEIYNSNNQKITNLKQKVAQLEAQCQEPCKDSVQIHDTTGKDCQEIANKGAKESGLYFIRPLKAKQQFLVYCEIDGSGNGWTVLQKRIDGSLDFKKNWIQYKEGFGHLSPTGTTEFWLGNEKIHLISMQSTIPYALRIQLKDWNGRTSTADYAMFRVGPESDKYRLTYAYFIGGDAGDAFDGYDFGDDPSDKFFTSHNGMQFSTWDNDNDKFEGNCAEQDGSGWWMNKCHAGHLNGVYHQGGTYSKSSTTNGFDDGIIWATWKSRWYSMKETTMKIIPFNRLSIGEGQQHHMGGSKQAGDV

[4] = molecular target: T1, fibrin(ogen) in the spinal cord of EAE mice (mouse); test: biotinylated Antibody G injected i.p. in MOG35-55 EAE mice; sections stained with streptavidin and sheep anti-fibrinogen antibody
[5] = molecular target: fibrinogen (UniProt P02671); test: told with the fibrin polymerization assay
[6] = molecular target: fibrin (UniProt P02671); test: told with the fibrin polymerization assay
[7] = molecular target: fibrin (UniProt P02671); test: ELISA, plates coated with fibrin
[8] = molecular target: T1, fibrin(ogen) in the spinal cord of EAE mice (mouse); test: double immunofluorescence with a sheep anti-fibrin(ogen) antibody, spinal cord sections
[9] = molecular target: T1, fibrin(ogen) in the spinal cord of EAE mice (mouse); test: immunohistochemistry of MOG35-55 EAE mouse spinal cord sections, Antibody G 0.4 mg/ml

Measured: binding

B1: Antibody G (45-C1C3) (antibody, V domains shown)
VH: EVQLVESGGGAVQPGRSLRLSCAASGVSFSNIGMHWVRQAPGKGLEWVALISSDGRHTHYADSVKGRFTISRDNSENTLYLQINGLRADDTAVYYCAKGLDTRARYMGKFYTFDYWGQGTLVTVSS
VL: DIQLTQSPSSLSASVGDRVTITCRASQNIGVNLNWYQQRPGKGPKLLVSSTFSLQSGVPSRFSASGAGTNFTLTISSLQPEDYVTYYCQQSYSSPFTFGPGTKVDIK
notes: also called mAb G; Ab G
binds: all assays above
